Source: patent US20200317660A1, “Quinazolinone Compound and Application Thereof” (LUOXIN PHARMACEUTICAL (SHANGHAI) CO., LTD., priority 2017, published 2020)
pIC50: −log10 of the molar value. At least one compound was matched to its structure with a doubt left.

Protein sequences, listed by entry. Tags and fused reporters are not part of them. Lines headed by an entry give the natural chain unless they say otherwise; changes in a name come on top.
UniProt P42338: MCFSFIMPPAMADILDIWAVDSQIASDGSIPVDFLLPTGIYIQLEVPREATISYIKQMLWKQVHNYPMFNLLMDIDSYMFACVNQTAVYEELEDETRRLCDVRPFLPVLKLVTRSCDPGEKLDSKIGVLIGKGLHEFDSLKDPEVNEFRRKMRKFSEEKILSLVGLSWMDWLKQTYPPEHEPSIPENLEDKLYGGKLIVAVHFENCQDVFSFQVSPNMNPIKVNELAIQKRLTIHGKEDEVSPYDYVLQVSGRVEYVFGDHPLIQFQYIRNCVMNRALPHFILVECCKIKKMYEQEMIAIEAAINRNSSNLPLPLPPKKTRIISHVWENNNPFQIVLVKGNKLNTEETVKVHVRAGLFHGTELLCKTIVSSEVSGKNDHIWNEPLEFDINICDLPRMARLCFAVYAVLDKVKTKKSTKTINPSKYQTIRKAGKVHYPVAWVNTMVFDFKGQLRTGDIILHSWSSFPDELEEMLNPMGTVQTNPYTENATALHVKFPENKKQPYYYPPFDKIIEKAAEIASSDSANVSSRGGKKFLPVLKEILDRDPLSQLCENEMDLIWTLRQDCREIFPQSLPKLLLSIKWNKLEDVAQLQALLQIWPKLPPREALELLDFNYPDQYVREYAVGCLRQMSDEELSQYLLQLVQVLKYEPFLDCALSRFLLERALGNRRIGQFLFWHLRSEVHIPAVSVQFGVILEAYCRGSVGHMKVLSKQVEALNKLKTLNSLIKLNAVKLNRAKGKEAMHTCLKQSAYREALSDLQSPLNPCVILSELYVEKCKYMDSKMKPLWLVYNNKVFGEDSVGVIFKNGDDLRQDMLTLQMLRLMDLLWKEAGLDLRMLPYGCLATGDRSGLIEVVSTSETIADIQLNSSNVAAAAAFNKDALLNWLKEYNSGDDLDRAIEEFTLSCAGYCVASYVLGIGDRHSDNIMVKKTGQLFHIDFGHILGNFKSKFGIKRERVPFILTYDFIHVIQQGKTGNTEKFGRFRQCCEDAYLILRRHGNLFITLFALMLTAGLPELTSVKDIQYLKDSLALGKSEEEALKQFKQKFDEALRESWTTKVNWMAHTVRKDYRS
UniProt P42336, whole entry: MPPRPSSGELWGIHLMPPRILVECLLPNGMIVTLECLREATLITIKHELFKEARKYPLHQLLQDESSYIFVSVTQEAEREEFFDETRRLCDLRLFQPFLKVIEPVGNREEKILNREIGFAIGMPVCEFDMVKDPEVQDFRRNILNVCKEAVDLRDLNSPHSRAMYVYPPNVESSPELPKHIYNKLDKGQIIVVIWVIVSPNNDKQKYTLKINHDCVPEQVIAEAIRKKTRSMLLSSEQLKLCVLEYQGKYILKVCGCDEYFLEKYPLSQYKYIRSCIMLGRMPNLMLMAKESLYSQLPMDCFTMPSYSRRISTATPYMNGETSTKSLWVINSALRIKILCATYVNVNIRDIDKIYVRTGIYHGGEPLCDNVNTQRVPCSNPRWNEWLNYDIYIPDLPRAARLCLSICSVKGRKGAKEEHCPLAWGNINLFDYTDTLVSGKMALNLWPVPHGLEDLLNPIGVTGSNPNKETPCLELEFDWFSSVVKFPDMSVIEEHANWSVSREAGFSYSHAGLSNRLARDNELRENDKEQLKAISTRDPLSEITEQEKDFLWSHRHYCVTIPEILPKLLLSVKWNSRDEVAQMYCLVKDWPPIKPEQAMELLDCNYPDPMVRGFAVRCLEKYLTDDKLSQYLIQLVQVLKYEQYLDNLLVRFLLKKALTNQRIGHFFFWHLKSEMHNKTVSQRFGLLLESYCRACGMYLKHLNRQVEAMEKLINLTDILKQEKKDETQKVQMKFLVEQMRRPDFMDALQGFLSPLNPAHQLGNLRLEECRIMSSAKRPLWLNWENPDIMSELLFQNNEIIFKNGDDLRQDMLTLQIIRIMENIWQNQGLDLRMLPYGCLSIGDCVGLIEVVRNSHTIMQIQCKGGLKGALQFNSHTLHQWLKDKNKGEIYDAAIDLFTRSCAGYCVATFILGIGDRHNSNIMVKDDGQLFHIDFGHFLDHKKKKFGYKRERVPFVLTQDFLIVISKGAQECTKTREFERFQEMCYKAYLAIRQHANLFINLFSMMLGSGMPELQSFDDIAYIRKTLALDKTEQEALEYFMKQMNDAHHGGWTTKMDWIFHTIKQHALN
UniProt P48736: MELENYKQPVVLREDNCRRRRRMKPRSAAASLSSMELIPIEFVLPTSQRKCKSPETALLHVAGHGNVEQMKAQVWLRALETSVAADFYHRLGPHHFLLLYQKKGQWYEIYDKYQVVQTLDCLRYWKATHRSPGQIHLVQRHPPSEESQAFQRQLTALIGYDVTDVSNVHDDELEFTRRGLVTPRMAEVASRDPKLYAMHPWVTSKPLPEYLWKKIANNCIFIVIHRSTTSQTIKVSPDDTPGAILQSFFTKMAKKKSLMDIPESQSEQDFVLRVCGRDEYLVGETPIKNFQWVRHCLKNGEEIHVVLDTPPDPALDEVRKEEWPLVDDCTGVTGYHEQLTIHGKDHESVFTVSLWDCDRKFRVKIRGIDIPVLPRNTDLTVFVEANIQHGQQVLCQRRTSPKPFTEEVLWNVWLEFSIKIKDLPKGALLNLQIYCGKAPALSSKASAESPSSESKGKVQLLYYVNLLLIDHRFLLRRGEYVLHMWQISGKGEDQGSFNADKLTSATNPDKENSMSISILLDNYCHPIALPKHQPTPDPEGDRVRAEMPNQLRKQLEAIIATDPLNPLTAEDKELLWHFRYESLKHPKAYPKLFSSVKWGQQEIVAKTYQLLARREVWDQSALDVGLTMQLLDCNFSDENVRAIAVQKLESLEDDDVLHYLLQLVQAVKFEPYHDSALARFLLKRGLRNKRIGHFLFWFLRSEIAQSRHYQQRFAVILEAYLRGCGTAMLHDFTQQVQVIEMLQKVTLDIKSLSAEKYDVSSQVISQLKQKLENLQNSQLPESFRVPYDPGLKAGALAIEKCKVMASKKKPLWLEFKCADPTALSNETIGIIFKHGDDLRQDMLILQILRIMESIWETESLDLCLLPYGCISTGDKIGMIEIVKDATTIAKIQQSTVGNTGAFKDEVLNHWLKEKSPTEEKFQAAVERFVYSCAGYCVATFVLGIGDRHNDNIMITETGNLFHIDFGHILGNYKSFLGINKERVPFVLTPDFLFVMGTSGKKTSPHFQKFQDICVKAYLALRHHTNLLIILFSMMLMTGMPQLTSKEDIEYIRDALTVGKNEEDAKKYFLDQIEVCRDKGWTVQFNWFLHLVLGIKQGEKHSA
UniProt O00329: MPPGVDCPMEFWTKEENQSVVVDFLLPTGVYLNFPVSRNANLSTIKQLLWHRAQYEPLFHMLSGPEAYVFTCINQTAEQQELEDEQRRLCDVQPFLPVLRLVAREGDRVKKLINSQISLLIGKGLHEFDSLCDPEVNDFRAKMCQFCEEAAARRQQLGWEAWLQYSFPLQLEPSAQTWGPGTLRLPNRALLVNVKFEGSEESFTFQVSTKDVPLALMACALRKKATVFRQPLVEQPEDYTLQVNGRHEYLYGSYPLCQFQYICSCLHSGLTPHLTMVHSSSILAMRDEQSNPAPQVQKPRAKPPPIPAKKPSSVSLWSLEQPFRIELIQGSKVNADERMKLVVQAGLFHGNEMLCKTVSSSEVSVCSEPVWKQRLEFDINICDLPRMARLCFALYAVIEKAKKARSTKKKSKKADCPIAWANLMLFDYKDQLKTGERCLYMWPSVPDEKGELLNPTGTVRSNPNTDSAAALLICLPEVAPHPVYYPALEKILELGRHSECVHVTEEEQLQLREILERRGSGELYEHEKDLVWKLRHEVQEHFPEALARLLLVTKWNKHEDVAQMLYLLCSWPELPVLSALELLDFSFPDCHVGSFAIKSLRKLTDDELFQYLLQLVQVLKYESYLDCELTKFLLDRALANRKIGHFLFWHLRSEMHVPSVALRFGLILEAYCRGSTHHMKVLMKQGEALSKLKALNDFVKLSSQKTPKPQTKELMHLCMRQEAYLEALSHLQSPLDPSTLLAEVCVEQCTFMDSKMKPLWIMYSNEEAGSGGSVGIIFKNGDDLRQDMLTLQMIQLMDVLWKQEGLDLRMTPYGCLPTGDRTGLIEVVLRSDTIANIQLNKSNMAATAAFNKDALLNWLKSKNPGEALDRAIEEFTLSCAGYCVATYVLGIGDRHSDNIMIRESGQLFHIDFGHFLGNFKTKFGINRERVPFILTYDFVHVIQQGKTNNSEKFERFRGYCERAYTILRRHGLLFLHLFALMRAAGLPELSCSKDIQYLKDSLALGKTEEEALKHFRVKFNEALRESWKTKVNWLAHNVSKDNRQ

Legend:
PI3Kβ = molecular target: T1, PI3Kβ (Homo sapiens, UniProt P42338); assay: In vitro test of enzyme activity (ADP-Glo lipokinase), PI3K beta; format: biochemical; settings: 40 μM ATP, 50 μM PIP2:3PS, 120 min
T1 construct: purchased Promega V1751
Experimental: (§1) 1. In Vitro Test of Enzyme Activity
(§2) The lipokinase reaction was carried out under the conditions of a suitable substrate and ATP, followed by two steps to detect the kinase activity with the ADP-Glo™ kit. The first step was terminating the kinase reaction, wherein the remaining ATP was completely removed and only ADP was left; the second step was adding kinase detection reagents to convert ADP to ATP, accompanied by luciferin/luciferase reaction. Finally, the output value of fluorescence value was converted into kinase activity.
(§3) Experimental materials and equipments:
(§4) 2. Kit: ADP-Glo™ Lipokinase and PIP2:3PS Kit (Promega # V1792)
(§5) The kit contains: 1 mM PIP2:3PS, 10× lipid dilution buffer, 1 M magnesium chloride, 10 mM ATP, 10 mM ADP, ADP-Glo reagent, detection buffer and detection substrate.
(§6) 3. Reaction plate: OptiPlate-384, white and transparent (PerkinElmer #6007299).
(§7) 1. 10× reaction buffer: 500 mM HEPES, pH 7.5, 500 mM NaCl, 9 mM MgCl2; BSA: 10% stock solution, homemade.
(§8) 2. Final test system conditions: 1× reaction system: 50 mM HEPES, 50 mM NaCl, 3 mM MgCl2, 0.01% BSA (freshly prepared on the day of the experiment), 1% DMSO (v/v)+/−compound
(§9) 3. Reaction system: 3 μL mixture of the enzyme and the substrate (1:1)+2 μL ATP/MgCl2 mixture+5 μL ADP-Glo reagent+10 μL detection reagent. […]
(§10) (16) The fluorescence value was measured on the Envision instrument.

PI3Kα = molecular target: T2, PI3Kα (Homo sapiens, UniProt P42336); assay: In vitro test of enzyme activity (ADP-Glo lipokinase), PI3K alpha; format: biochemical; settings: 40 μM ATP, 50 μM PIP2:3PS, 120 min
T2 construct: purchased Millipore 14-602-K
Experimental: as §1, §2, §3, §4, §5, §6, §7, §8, §9, §10

PI3Kγ = molecular target: T3, PI3Kγ (Homo sapiens, UniProt P48736); assay: In vitro test of enzyme activity (ADP-Glo lipokinase), PI3K gamma; format: biochemical; settings: 25 μM ATP, 50 μM PIP2:3PS, 120 min
T3 construct: purchased Millipore 14-558-K
Experimental: as §1, §2, §3, §4, §5, §6, §7, §8, §9, §10

PI3Kδ = molecular target: T4, PI3Kδ (Homo sapiens, UniProt O00329); assay: In vitro test of enzyme activity (ADP-Glo lipokinase), PI3K delta; format: biochemical; settings: 40 μM ATP, 50 μM PIP2:3PS, 120 min
T4 construct: purchased Millipore 14-604-K
Experimental: as §1, §2, §3, §4, §5, §6, §7, §8, §9, §10

[1] = test system: phosphorylation of PI3K downstream protein Akt in MCF7 cells; assay: In vitro test of cells activity: ELISA of Akt phosphorylation in MCF7 cells; format: cell-based; settings: 2 h compound, insulin 10 μg/mL stimulation, pAkt ELISA, read-out: MCF7 Cell IC50
Experimental: 2. In vitro test of cells activity
By the method of ELISA, the inhibition level of the test compound on the phosphorylation of PI3K downstream protein Akt in the signaling pathway was determined in MCF7 cells line to reflect the cells activity of the compound.
Cell culture medium: complete cell culture medium (RPMI 1640+10% serum+1% L-glutamine+1% double antibody)
Serum-free medium (without serum, RPMI 1640+1% L-glutamine+1% double antibody)
The detailed procedures areas follows:
(1) MCF7 cells (ATCC® HTB-22™) were inoculated into a 96-well plate at 100 μL of cell complete medium per well (2.5*10^4 cells per well), and the cells were incubated at 37° C. and 5% CO2 for 24 hours.
(2) The complete cell culture medium was replaced with 100 μL of serum-free medium, and incubated for starvation overnight.
(3) The compound was prepared (The initial concentration of the compound is 1 mM, which was subjected to a three-fold dilution in 10 concentrations, and the compound of each concentration was then diluted 100-fold with serum-free medium). 25 μL of the diluted compound was added to the cells orifice plate.
(4) The cells were incubated at 37° C. and 5% CO2 for 2 hours.
(5) The cells in the well plate were stimulated with 10 μg/mL insulin (Sigma # I9278-5 mL), incubated for 30 minutes, and then centrifuged at 1000 rpm for 5 minutes at room temperature. […]

SMILES: COC(=O)C(C)Cn1cnc2ccc(-c3cnc(C)c(NS(=O)(=O)c4ccc(F)cc4Cl)c3)cc2c1=O (single isomer, unassigned) [R006, reference compound]
- PI3Kβ IC50 (PI3Kβ): 159 nM
- PI3Kα IC50 (PI3Kα): 5.73 nM
- PI3Kγ IC50 (PI3Kγ): 58.5 nM
- PI3Kδ IC50 (PI3Kδ): 8.57 nM
- pIC50 [1]: 6.79

SMILES: COC(=O)C(C)Cn1cnc2ccc(-c3cnc(OC)c(NS(=O)(=O)c4ccc(F)cc4Cl)c3)cc2c1=O (single isomer, unassigned) [R004, reference compound]
- PI3Kβ IC50 (PI3Kβ): 46.4 nM
- PI3Kα IC50 (PI3Kα): 3.21 nM
